# This is one part of the list.
# B1: Erv46-EDTA (Saccharomyces cerevisiae), P39727 (protein)
# chain: MKFLVNVALVFMVVYISYIYAAAPEHHHHHHDYDIPTTENLYFQGAMDSVVTRPQLVVDRDRHAKLELNMDVTFPSMPCDLVNLDIMDDSGEMQLDILDAGFTMSRLNSEGRPVGDATELHVGGNGDGTAPVNNDPNYCGPCYGAKDQSQNENLAQEEKVCCQDCDAVRSAYLEAGWAFFDGKNIEQCEREGYVSKINEHLNEGCRIKGSAQINRIQGNLHFAPGKPYQNAYGHFHDTSLYDKTSNLNFNHIINHLSFGKPIQSHSKLLGNDKRHGGAVVATSPLDGRQVFPDRNTHFHQFSYFAKIVPTRYEYLDNVVIETAQFSATFHSRPLAGGRDKDHPNTLHVRGGIPGMFVFFEMSPLKVINKEQ
# Columns and labels:
# Experiment in all cases: glycan array binding signal (z-score within array); higher = stronger binding
# Details in all cases: glycan notation: IUPAC condensed, linker removed
# Gal(a1-6)Glc = target: Gal(a1-6)Glc
# Procedure, shortened: (§1)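 The binding signal is a Z-score computed within each array. Data were drawn from 3228 arrays in the Consortium for Functional Glycomics database, restricted to those with a known protein sequence. Scores were averaged over arrays of the same protein sequence at different concentrations or buffers, and over linkers, and negative values can be taken as non-binding.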
# Gal(b1-2)Gal = target: Gal(b1-2)Gal
# Procedure, shortened: as §1
# Gal(b1-3)Gal = target: Gal(b1-3)Gal
# Procedure, shortened: as §1
# Gal(b1-3)Gal(b1-4)GlcNAc = target: Gal(b1-3)Gal(b1-4)GlcNAc
# Procedure, shortened: as §1
# Gal(b1-3)GalNAc = target: Gal(b1-3)GalNAc
# Procedure, shortened: as §1
# [1] = target: Gal(b1-3)GalNAc(a1-3)[Fuc(a1-2)]Gal(b1-4)Glc
# Procedure, shortened: as §1
# [2] = target: Gal(b1-3)GalNAc(a1-3)[Fuc(a1-2)]Gal(b1-4)GlcNAc
# Procedure, shortened: as §1
# Gal(b1-3)GalNAc(b1-3)Gal = target: Gal(b1-3)GalNAc(b1-3)Gal
# Procedure, shortened: as §1
# [3] = target: Gal(b1-3)GalNAc(b1-3)Gal(a1-4)Gal(b1-4)Glc
# Procedure, shortened: as §1
# [4] = target: Gal(b1-3)GalNAc(b1-4)Gal(b1-4)Glc
# Procedure, shortened: as §1
# [5] = target: Gal(b1-3)GalNAc(b1-4)[Neu5Ac(a2-3)]Gal(b1-4)Glc
# Procedure, shortened: as §1
# Gal(b1-3)GlcNAc = target: Gal(b1-3)GlcNAc
# Procedure, shortened: as §1
# [6] = target: Gal(b1-3)GlcNAc(a1-3)Gal(b1-4)GlcNAc
# Procedure, shortened: as §1
# [7] = target: Gal(b1-3)GlcNAc(a1-6)Gal(b1-4)GlcNAc
# Procedure, shortened: as §1
# Gal(b1-3)GlcNAc(b1-2)Man = target: Gal(b1-3)GlcNAc(b1-2)Man
# Procedure, shortened: as §1
# [8] = target: Gal(b1-3)GlcNAc(b1-2)Man(a1-3)[Gal(b1-3)GlcNAc(b1-2)Man(a1-6)]Man(b1-4)GlcNAc(b1-4)GlcNAc
# Procedure, shortened: as §1
# [9] = target: Gal(b1-3)GlcNAc(b1-2)Man(a1-3)[Gal(b1-3)GlcNAc(b1-2)Man(a1-6)]Man(b1-4)GlcNAc(b1-4)[Fuc(a1-6)]GlcNAc
# Procedure, shortened: as §1
# [10] = target: Gal(b1-3)GlcNAc(b1-2)Man(a1-3)[GlcNAc(b1-4)][Gal(b1-3)GlcNAc(b1-2)Man(a1-6)]Man(b1-4)GlcNAc(b1-4)GlcNAc
# Procedure, shortened: as §1
# [11] = target: Gal(b1-3)GlcNAc(b1-2)[Gal(b1-3)GlcNAc(b1-6)]Man(a1-6)[Gal(b1-3)GlcNAc(b1-2)Man(a1-3)]Man(b1-4)GlcNAc(b1-4)GlcNAc
# Procedure, shortened: as §1
# [12] = target: Gal(b1-3)GlcNAc(b1-3)Gal(b1-3)GlcNAc
# Procedure, shortened: as §1
# [13] = target: Gal(b1-3)GlcNAc(b1-3)Gal(b1-4)Glc
# Procedure, shortened: as §1
# [14] = target: Gal(b1-3)GlcNAc(b1-3)Gal(b1-4)GlcNAc
# Procedure, shortened: as §1
# [15] = target: Gal(b1-3)GlcNAc(b1-3)Gal(b1-4)GlcNAc(b1-2)Man(a1-3)[Gal(b1-3)GlcNAc(b1-3)Gal(b1-4)GlcNAc(b1-2)Man(a1-6)]Man(b1-4)GlcNAc(b1-4)GlcNAc
# Procedure, shortened: as §1
# [16] = target: Gal(b1-3)GlcNAc(b1-3)Gal(b1-4)GlcNAc(b1-2)[Gal(b1-3)GlcNAc(b1-3)Gal(b1-4)GlcNAc(b1-6)]Man(a1-6)[Gal(b1-3)GlcNAc(b1-3)Gal(b1-4)GlcNAc(b1-2)Man(a1-3)]Man(b1-4)GlcNAc(b1-4)[Fuc(a1-6)]GlcNAc
# Procedure, shortened: as §1
# [17] = target: Gal(b1-3)GlcNAc(b1-3)Gal(b1-4)GlcNAc(b1-3)Gal(b1-4)GlcNAc(b1-2)[Gal(b1-3)GlcNAc(b1-3)Gal(b1-4)GlcNAc(b1-3)Gal(b1-4)GlcNAc(b1-6)]Man(a1-6)[Gal(b1-3)GlcNAc(b1-3)Gal(b1-4)GlcNAc(b1-3)Gal(b1-4)GlcNAc(b1-2)Man(a1-3)]Man(b1-4)GlcNAc(b1-4)[Fuc(a1-6)]GlcNAc
# Procedure, shortened: as §1
# [18] = target: Gal(b1-3)GlcNAc(b1-3)Gal(b1-4)GlcNAc(b1-6)[Gal(b1-3)GlcNAc(b1-3)]Gal(b1-4)Glc
# Procedure, shortened: as §1
# [19] = target: Gal(b1-3)GlcNAc(b1-3)Gal(b1-4)[Fuc(a1-3)]GlcNAc
# Procedure, shortened: as §1
# [20] = target: Gal(b1-3)GlcNAc(b1-3)Gal(b1-4)[Fuc(a1-3)]GlcNAc(b1-6)[Gal(b1-3)GlcNAc(b1-3)]Gal(b1-4)Glc
# Procedure, shortened: as §1
# [21] = target: Gal(b1-3)GlcNAc(b1-3)GalNAc
# Procedure, shortened: as §1
# [22] = target: Gal(b1-3)GlcNAc(b1-6)Gal(b1-4)GlcNAc
# Procedure, shortened: as §1
# [23] = target: Gal(b1-3)GlcNAc(b1-6)GalNAc
# Procedure, shortened: as §1
# [24] = target: Gal(b1-3)GlcNAc(b1-6)[Gal(b1-3)]GalNAc
# Procedure, shortened: as §1
# Gal(b1-3)GlcNAc6S = target: Gal(b1-3)GlcNAc6S
# Procedure, shortened: as §1
# [25] = target: Gal(b1-3)[Fuc(a1-4)]GlcNAc
# Procedure, shortened: as §1
# [26] = target: Gal(b1-3)[Fuc(a1-4)]GlcNAc(b1-2)Man
# Procedure, shortened: as §1
# [27] = target: Gal(b1-3)[Fuc(a1-4)]GlcNAc(b1-2)Man(a1-3)[Gal(b1-3)[Fuc(a1-4)]GlcNAc(b1-2)Man(a1-6)]Man(b1-4)GlcNAc(b1-4)[Fuc(a1-6)]GlcNAc
# Procedure, shortened: as §1
# [28] = target: Gal(b1-3)[Fuc(a1-4)]GlcNAc(b1-3)Gal(b1-3)[Fuc(a1-4)]GlcNAc
# Procedure, shortened: as §1
binder,measurement,setting,value
B1,glycan array binding signal (z-score),Gal(a1-6)Glc,0.66
same,glycan array binding signal (z-score),Gal(b1-2)Gal,0.267
same,glycan array binding signal (z-score),Gal(b1-3)Gal,-0.198
same,glycan array binding signal (z-score),Gal(b1-3)Gal(b1-4)GlcNAc,0.071
same,glycan array binding signal (z-score),Gal(b1-3)GalNAc,0.046
same,glycan array binding signal (z-score),[1],-0.47
same,glycan array binding signal (z-score),[2],-0.147
same,glycan array binding signal (z-score),Gal(b1-3)GalNAc(b1-3)Gal,-0.564
same,glycan array binding signal (z-score),[3],-0.249
same,glycan array binding signal (z-score),[4],-0.792
same,glycan array binding signal (z-score),[5],-0.138
same,glycan array binding signal (z-score),Gal(b1-3)GlcNAc,0.457
same,glycan array binding signal (z-score),[6],-0.727
same,glycan array binding signal (z-score),[7],-0.279
same,glycan array binding signal (z-score),Gal(b1-3)GlcNAc(b1-2)Man,0.036
same,glycan array binding signal (z-score),[8],1.12
same,glycan array binding signal (z-score),[9],0.136
same,glycan array binding signal (z-score),[10],1.03
same,glycan array binding signal (z-score),[11],-0.482
same,glycan array binding signal (z-score),[12],-0.355
same,glycan array binding signal (z-score),[13],0.148
same,glycan array binding signal (z-score),[14],-0.08
same,glycan array binding signal (z-score),[15],0.126
same,glycan array binding signal (z-score),[16],1.78
same,glycan array binding signal (z-score),[17],1.09
same,glycan array binding signal (z-score),[18],-0.342
same,glycan array binding signal (z-score),[19],-0.817
same,glycan array binding signal (z-score),[20],-0.818
same,glycan array binding signal (z-score),[21],-1.05
same,glycan array binding signal (z-score),[22],-0.702
same,glycan array binding signal (z-score),[23],-0.012
same,glycan array binding signal (z-score),[24],-0.696
same,glycan array binding signal (z-score),Gal(b1-3)GlcNAc6S,0.208
same,glycan array binding signal (z-score),[25],-0.19
same,glycan array binding signal (z-score),[26],1.62
same,glycan array binding signal (z-score),[27],0.195
same,glycan array binding signal (z-score),[28],0.259

# 2 consecutive records already listed:
binder,measurement,setting,value
B1,glycan array binding signal (z-score),[27],0.195
same,glycan array binding signal (z-score),[28],0.259

# From the supplement of paper PMC8728848
